Data published in the supplement of paper PMC11006884.
Only a part is listed here, and it is no random draw.

Chains of the proteins cited; added tags and fusions are not shown. Lines headed by an entry give the natural chain unless they say otherwise; changes in a name come on top.
UniProt Q5BKX5: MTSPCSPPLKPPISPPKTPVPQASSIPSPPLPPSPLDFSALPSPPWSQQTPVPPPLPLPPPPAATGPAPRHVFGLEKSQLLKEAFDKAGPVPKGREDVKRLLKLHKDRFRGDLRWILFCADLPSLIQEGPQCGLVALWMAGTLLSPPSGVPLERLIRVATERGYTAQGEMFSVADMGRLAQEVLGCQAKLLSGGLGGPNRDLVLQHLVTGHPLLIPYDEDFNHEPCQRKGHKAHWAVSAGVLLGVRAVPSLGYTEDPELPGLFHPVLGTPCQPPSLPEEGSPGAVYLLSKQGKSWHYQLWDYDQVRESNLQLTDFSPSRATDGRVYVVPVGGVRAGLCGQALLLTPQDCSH
UniProt Q5SNT2: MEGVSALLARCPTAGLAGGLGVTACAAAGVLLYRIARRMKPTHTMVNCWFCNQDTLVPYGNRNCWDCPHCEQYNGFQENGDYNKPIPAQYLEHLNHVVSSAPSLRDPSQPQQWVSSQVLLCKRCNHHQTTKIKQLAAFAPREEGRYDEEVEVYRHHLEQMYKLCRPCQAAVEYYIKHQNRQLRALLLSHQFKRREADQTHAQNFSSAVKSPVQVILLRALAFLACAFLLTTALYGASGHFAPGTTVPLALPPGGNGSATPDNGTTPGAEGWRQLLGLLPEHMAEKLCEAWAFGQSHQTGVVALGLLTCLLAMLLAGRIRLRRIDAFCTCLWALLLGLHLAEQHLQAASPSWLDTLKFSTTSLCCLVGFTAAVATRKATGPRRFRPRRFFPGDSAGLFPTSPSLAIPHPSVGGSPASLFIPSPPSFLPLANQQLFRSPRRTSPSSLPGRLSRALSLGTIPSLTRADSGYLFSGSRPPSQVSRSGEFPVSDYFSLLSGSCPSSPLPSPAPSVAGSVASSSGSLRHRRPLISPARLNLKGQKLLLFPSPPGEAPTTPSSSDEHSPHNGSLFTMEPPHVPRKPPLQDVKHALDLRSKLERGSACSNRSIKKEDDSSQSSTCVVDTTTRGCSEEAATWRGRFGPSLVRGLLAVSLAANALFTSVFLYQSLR
UniProt Q6IQ49: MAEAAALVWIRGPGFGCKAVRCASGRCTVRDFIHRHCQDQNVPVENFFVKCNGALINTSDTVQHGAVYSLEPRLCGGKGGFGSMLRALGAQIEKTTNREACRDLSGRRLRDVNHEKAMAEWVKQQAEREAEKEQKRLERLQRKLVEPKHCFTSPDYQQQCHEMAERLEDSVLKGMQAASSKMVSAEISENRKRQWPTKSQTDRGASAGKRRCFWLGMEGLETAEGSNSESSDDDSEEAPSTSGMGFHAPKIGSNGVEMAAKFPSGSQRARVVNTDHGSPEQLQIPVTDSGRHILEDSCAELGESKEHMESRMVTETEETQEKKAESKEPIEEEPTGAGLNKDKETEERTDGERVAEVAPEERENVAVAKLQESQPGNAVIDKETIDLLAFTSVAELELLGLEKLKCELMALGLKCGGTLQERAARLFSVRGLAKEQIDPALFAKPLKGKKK
UniProt Q5VUA4: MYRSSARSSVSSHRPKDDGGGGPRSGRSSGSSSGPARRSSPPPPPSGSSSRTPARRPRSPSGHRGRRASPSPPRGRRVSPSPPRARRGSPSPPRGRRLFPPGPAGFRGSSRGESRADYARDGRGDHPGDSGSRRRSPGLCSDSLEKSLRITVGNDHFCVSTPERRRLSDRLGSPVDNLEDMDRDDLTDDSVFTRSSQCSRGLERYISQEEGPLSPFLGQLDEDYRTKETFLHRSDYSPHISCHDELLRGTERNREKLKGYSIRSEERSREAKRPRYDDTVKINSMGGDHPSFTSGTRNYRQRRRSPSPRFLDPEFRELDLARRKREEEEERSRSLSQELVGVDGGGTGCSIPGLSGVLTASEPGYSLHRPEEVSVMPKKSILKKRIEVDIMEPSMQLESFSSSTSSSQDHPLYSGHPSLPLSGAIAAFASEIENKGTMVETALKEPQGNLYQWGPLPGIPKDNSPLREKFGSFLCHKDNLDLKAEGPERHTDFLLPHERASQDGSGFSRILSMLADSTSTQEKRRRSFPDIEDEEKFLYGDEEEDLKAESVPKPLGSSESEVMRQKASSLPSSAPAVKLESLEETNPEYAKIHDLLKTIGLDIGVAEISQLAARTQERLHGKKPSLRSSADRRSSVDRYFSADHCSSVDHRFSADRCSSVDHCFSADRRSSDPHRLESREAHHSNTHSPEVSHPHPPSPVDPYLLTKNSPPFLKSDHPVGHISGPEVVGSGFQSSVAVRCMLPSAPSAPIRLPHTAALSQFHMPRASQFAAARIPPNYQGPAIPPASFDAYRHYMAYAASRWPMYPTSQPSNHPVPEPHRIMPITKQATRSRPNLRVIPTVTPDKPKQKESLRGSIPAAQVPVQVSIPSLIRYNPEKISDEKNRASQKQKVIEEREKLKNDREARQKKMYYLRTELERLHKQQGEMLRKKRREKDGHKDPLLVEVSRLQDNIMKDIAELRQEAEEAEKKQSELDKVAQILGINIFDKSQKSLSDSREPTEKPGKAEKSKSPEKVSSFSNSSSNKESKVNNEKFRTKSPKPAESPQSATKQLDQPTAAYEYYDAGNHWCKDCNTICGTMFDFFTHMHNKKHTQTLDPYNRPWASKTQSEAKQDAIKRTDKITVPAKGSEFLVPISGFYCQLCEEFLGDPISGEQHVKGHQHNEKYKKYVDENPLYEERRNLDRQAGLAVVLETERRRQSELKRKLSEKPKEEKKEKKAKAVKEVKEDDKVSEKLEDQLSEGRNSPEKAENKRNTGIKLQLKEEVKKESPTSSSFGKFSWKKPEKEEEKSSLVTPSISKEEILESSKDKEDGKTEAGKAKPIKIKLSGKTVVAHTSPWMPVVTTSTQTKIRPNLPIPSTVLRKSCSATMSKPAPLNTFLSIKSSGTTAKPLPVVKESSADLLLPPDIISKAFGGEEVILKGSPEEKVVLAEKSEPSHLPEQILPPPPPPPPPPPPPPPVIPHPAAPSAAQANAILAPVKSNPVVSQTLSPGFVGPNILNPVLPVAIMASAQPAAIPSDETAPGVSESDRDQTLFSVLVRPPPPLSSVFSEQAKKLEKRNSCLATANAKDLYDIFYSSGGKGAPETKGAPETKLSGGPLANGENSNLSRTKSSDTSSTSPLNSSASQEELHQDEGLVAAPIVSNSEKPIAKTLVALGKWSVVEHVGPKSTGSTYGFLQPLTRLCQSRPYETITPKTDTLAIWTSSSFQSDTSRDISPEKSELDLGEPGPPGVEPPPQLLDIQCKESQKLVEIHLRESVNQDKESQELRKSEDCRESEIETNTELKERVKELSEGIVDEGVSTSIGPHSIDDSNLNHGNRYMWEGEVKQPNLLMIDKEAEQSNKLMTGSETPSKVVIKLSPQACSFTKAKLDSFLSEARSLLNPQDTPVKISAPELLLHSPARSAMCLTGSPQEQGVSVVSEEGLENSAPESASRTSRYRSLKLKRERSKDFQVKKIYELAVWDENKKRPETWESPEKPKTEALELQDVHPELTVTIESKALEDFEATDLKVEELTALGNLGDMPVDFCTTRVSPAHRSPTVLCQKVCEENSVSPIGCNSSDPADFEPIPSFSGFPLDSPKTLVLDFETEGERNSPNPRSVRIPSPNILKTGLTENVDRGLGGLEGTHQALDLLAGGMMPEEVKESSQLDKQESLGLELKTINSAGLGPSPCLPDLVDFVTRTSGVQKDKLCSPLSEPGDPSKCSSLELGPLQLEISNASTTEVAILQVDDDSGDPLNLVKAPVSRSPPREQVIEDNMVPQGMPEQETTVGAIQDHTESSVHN
UniProt Q6PCB5: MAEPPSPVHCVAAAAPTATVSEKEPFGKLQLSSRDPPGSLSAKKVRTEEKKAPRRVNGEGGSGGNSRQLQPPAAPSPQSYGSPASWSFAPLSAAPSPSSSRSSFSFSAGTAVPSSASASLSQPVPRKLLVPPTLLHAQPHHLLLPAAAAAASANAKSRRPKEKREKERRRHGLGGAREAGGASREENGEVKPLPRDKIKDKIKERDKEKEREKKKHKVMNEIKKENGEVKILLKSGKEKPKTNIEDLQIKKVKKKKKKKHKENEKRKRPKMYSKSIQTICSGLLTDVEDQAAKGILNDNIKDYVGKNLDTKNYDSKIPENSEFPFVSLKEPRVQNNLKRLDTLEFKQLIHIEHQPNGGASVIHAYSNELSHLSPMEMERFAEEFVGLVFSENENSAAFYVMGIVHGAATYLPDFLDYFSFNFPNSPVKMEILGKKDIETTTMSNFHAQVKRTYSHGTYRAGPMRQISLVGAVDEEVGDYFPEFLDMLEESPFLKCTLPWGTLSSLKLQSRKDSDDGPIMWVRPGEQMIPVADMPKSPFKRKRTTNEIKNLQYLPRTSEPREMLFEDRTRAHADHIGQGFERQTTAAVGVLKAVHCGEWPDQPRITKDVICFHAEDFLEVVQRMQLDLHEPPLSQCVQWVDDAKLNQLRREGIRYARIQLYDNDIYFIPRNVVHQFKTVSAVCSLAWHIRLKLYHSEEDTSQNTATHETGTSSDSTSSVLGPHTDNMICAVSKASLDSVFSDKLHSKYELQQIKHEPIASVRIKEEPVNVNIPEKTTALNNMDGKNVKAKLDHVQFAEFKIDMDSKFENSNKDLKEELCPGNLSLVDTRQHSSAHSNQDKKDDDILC
UniProt Q5VZ89: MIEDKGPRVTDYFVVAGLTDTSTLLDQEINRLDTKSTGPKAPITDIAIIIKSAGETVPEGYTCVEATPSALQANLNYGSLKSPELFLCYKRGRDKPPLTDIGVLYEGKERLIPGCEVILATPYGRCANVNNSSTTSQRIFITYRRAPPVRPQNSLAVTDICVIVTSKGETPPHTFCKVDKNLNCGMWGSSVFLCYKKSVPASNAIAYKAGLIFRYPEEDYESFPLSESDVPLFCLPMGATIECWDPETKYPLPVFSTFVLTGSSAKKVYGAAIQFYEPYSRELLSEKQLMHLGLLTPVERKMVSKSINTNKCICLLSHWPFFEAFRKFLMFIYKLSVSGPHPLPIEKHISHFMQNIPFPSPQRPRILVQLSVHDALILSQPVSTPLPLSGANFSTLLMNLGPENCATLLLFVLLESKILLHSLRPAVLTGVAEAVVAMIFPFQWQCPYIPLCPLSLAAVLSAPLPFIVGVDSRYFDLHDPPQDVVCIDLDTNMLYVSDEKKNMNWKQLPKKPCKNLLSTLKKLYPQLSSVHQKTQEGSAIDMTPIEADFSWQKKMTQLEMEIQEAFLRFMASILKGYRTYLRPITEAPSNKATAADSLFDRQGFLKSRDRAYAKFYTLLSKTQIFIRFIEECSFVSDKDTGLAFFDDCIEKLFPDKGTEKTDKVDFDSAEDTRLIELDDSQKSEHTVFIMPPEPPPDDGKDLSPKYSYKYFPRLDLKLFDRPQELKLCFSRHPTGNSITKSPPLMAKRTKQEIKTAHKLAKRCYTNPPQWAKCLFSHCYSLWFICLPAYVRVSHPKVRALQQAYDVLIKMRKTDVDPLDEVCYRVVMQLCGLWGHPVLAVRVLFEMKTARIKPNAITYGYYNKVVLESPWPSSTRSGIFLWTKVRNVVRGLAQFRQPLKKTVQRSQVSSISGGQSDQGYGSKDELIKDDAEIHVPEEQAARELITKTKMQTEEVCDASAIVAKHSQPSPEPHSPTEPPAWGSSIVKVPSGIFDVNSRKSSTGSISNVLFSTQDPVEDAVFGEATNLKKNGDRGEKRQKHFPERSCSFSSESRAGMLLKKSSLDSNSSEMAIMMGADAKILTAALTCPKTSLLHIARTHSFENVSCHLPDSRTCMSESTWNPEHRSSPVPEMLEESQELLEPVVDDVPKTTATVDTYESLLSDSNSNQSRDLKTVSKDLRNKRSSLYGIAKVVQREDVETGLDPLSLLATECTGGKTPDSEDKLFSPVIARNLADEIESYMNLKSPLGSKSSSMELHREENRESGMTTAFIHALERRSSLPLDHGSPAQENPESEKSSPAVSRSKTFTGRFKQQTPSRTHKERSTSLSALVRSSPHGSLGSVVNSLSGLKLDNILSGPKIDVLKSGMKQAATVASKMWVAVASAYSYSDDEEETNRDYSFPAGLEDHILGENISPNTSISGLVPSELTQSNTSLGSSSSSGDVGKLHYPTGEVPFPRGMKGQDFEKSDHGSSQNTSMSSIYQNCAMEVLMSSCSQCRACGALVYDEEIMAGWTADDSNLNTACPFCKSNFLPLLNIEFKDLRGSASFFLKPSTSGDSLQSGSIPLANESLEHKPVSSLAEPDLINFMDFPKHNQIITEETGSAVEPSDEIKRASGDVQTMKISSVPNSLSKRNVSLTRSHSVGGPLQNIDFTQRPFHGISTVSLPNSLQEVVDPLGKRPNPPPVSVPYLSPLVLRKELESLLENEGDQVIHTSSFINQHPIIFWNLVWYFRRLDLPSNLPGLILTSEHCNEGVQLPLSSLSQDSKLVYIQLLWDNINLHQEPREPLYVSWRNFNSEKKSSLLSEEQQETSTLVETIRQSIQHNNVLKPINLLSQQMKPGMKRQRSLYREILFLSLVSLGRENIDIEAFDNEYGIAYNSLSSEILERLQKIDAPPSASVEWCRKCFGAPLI

These targets were tested with COC(=O)C#Cc1ccccc1 [methyl 3-phenylpropiolate] (assay: log2 ratio of iodoacetamide-alkyne labeling of the cysteine site, DMSO over compound (competition); higher = stronger covalent engagement of the cysteine by the compound, active = 1 or more). Conditions: 500 µM; treatment time 1 h; system: HEK293T cell lysate.
Procedure, shortened: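 Three replicates, each with duplicate channels, were prepared from HEK293T lysate (2 mg/mL) treated with vehicle or electrophile at 500 µM for 1 h at ambient temperature. Iodoacetamide alkyne was then applied for 1 h, and samples were clicked to sCIP-TMT reagents, pooled, trypsin-digested overnight at 37 °C, enriched on streptavidin, acid-eluted and analysed on Orbitrap Eclipse LC-MS/MS with FAIMS, with FragPipe quantification. The log2 competition ratio per cysteine is the mean control-channel divided by the mean compound-channel reporter intensity. Cysteines quantified in only one replicate were left out.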

log2 ratio of iodoacetamide-alkyne labeling, inactive:
C19orf54 C226 (UniProt Q5BKX5) 0.201
ARMC6 C484 (UniProt Q6NXE6) 0.144
TMEM201 C626 (UniProt Q5SNT2) 0.697
HIST2H3A C111 (UniProt Q71DI3) 0.0441
UniProt Q6IQ49_C415 0.108
ZNF318 C2168 (UniProt Q5VUA4) 0.167
UniProt Q5JTC6_C1060 0.46
FBXL19 C145 (UniProt Q6PCT2) -0.632
UniProt Q5UCC4_C49 0.246
FKBP15 C1031 (UniProt Q5T1M5) 0.273
ZNF318 C1559 (UniProt Q5VUA4) 0.605
RSBN1L C280 (UniProt Q6PCB5) 0.649
ZC3H14 C712 (UniProt Q6PJT7) -0.0936
RRP12 C102 (UniProt Q5JTH9) 0.419
CEP170 C967 (UniProt Q5SW79) 0.211
BCORL1 C139 (UniProt Q5H9F3) 0.368
ZNF318 C349 (UniProt Q5VUA4) 0.153
DENND4C C126 (UniProt Q5VZ89) 0.476
EDC4 C4 (UniProt Q6P2E9) 0.2
RIF1 C1187 (UniProt Q5UIP0) 0.557
TBC1D9B C444 (UniProt Q66K14) 0.39

At a glance, some entries already given.
log2 ratio of iodoacetamide-alkyne labeling, inactive:
ARMC6 C484 (UniProt Q6NXE6) 0.144
TMEM201 C626 (UniProt Q5SNT2) 0.697
HIST2H3A C111 (UniProt Q71DI3) 0.0441
UniProt Q6IQ49_C415 0.108
ZNF318 C2168 (UniProt Q5VUA4) 0.167
UniProt Q5JTC6_C1060 0.46
